Some entries share one result that the patent states for a list of compounds.
Legend:
KRAS G12V = target: T1, KRAS G12V (Homo sapiens, UniProt P01116, G12V); assay: Cellular Phospho-ERK AlphaLISA assay, SW620 cells; assay type: cell-based; details: for selective inhibition preference for KRas G12V mutant over HRAS and NRAS: SW620 vs MEF-NRAS or MEF-HRAS Phospho-ERK AlphaLISA; for IC50: 2 h incubation, read-out: relative IC50, reduction of phosphorylated ERK-1/2, cells expressing KRAS G12V
T1 construct: endogenous in cells; host or cells: SW620 human colorectal cancer cells

NRAS = NRAS (Homo sapiens, UniProt P01111); assay: Cellular Phospho-ERK AlphaLISA assay, MEF-NRAS cells; assay type: cell-based, mouse; details: RAS-less MEFs expressing NRAS only; read-out: relative IC50, phospho-ERK, MEF-NRAS
HRAS = HRAS (Homo sapiens, UniProt P01112); assay: Cellular Phospho-ERK AlphaLISA assay, MEF-HRAS cells; assay type: cell-based, mouse; details: RAS-less MEFs expressing HRAS only; read-out: relative IC50, phospho-ERK, MEF-HRAS

SMILES | selective inhibition preference for KRas G12V mutant over HRAS and NRAS (KRAS G12V) | further results
C[C@H]1[C@@H](N(C)C)CCN1c1ncc2c3c(c(-c4ncc(F)c5sc(N)c(C#N)c45)c(Cl)c2n1)COC3 (single isomer, unassigned; atropisomer 1) [Example 76C] | greater than 10 fold | 
C[C@H](O)CN(C)[C@H]1CCN(c2ncc3c4c(c(-c5ncc(F)c6sc(N)c(C#N)c56)c(Cl)c3n2)COC4)[C@H]1C (single isomer, unassigned; atropisomer 1) [Example 84C] | greater than 10 fold | 
CNC[C@H]1CCN(c2ncc3c4c(c(-c5ncc(F)c6sc(N)c(C#N)c56)c(Cl)c3n2)COC4)[C@H]1C (single isomer, unassigned; atropisomer 2) [Example 6D] |  | IC50 (KRAS G12V): < 500 nM
C[C@@H](O)CN(C)[C@H]1CCN(c2ncc3c4c(c(-c5ncc(F)c6sc(N)c(C#N)c56)c(Cl)c3n2)COC4)[C@H]1C (single isomer, unassigned; atropisomer 2) [Example 87C] | greater than 10 fold | 
CC(C)N[C@H]1CCN(c2ncc3c4c(c(-c5ncc(F)c6sc(N)c(C#N)c56)c(Cl)c3n2)COC4)[C@H]1C (single isomer, unassigned; atropisomer 2) [Example 88C] | greater than 10 fold | 
CC(C)N[C@H]1CCN(c2ncc3c4c(c(-c5c(F)ccc6sc(N)c(C#N)c56)c(F)c3n2)COC4)[C@H]1C (single isomer, unassigned; atropisomer 2) [Example 259D] | greater than 10 fold | 
CN(C)C1(CO)CCN(c2ncc3c4c(c(-c5c(F)ccc6sc(N)c(C#N)c56)c(Cl)c3n2)COC4)C1 (single isomer, unassigned; diastereomer 1) [Example 29B, 2-Amino-4-(5-chloro-3-(3-(dimethylamino)-3-(hydroxymethyl)pyrrolidin-1-yl)-7,9-dihydrofuro[3,4-f]quinazolin-6-yl)-5-fluorobenzo[b]thiophene-3-carbonitrile, Diastereomer 1] | greater than 10 fold | 
CC(C)NC1CN(c2ncc3c4c(c(-c5ncc(F)c6sc(N)c(C#N)c56)c(F)c3n2)COC4)CC1(C)O (single isomer, unassigned; isomer 1) [Example 184D, 2-Amino-7-fluoro-4-(5-fluoro-3-(3-hydroxy-4-(isopropylamino)-3-methylpyrrolidin-1-yl)-7,9-dihydrofuro[3,4-f]quinazolin-6-yl)thieno[3,2-c]pyridine-3-carbonitrile, Isomer 1] | greater than 10 fold | 
COCC1CN(c2ncc3c4c(c(-c5ncc(F)c6sc(N)c(C#N)c56)c(F)c3n2)COC4)CC1N(C)C (single isomer, unassigned; isomer 1) [Example 190D, 2-Amino-4-(3-(3-(dimethylamino)-4-(methoxymethyl)pyrrolidin-1-yl)-5-fluoro-7,9-dihydrofuro[3,4-f]quinazolin-6-yl)-7-fluorothieno[3,2-c]pyridine-3-carbonitrile, Isomer 1] | greater than 10 fold | 
CCN(CC)C1(CO)CCN(c2ncc3c4c(c(-c5ncc(F)c6sc(N)c(C#N)c56)c(F)c3n2)COC4)C1 (single isomer, unassigned; isomer 1) [Example 206D, 2-Amino-4-(3-(3-(diethylamino)-3-(hydroxymethyl)pyrrolidin-1-yl)-5-fluoro-7,9-dihydrofuro[3,4-f]quinazolin-6-yl)-7-fluorothieno[3,2-c]pyridine-3-carbonitrile, Isomer 1] | greater than 10 fold | IC50 (KRAS G12V): < 500 nM
CN(C)C1CC2C1CCN2c1ncc2c3c(c(-c4ncc(F)c5sc(N)c(C#N)c45)c(F)c2n1)COC3 (single isomer, unassigned; isomer 2) [Example 98C, 2-Amino-4-(3-(6-(dimethylamino)-2-azabicyclo[3.2.0]heptan-2-yl)-5-fluoro-7,9-dihydrofuro[3,4-f]quinazolin-6-yl)-7-fluorothieno[3,2-c]pyridine-3-carbonitrile, Isomer 2] | greater than 10 fold | 
CN1CCN(C2(CO)CCN(c3ncc4c5c(c(-c6ncc(F)c7sc(N)c(C#N)c67)c(F)c4n3)COC5)C2)CC1 (single isomer, unassigned; isomer 2) [Example 209D, 2-Amino-7-fluoro-4-(5-fluoro-3-(3-(hydroxymethyl)-3-(4-methylpiperazin-1-yl)pyrrolidin-1-yl)-7,9-dihydrofuro[3,4-f]quinazolin-6-yl)thieno[3,2-c]pyridine-3-carbonitrile, Isomer 2] | greater than 10 fold | IC50 (KRAS G12V): < 500 nM
N#Cc1c(N)sc2c(F)cnc(-c3c4c(c5cnc(N6CCC(N7CCOCC7)C6)nc5c3F)COC4)c12 (stereo not shown) [Example 9C, 2-Amino-7-fluoro-4-(5-fluoro-3-(3-morpholinopyrrolidin-1-yl)-7,9-dihydrofuro[3,4-f]quinazolin-6-yl)thieno[3,2-c]pyridine-3-carbonitrile] | greater than 10 fold | 
CC(C)N[C@H]1CCN(c2ncc3c4c(c(-c5ncc(F)c6sc(N)c(C#N)c56)c(F)c3n2)COC4)[C@H]1C [Example 28B, 2-Amino-7-fluoro-4-(5-fluoro-3-((2S,3S)-3-(isopropylamino)-2-methylpyrrolidin-1-yl)-7,9-dihydrofuro[3,4-f]quinazolin-6-yl)thieno[3,2-c]pyridine-3-carbonitrile] | greater than 10 fold | 
CN1C2CC1CN(c1ncc3c4c(c(-c5ncc(F)c6sc(N)c(C#N)c56)c(F)c3n1)COC4)C2 [Example 47A, 2-Amino-7-fluoro-4-(5-fluoro-3-(6-methyl-3,6-diazabicyclo[3.1.1]heptan-3-yl)-7,9-dihydrofuro[3,4-f]quinazolin-6-yl)thieno[3,2-c]pyridine-3-carbonitrile] | greater than 10 fold | 
CN(C)C1(C)CCN(c2ncc3c4c(c(-c5ncc(F)c6sc(N)c(C#N)c56)c(F)c3n2)COC4)C1 (stereo not shown) [Example 49A, 2-Amino-4-(3-(3-(dimethylamino)-3-methylpyrrolidin-1-yl)-5-fluoro-7,9-dihydrofuro[3,4-f]quinazolin-6-yl)-7-fluorothieno[3,2-c]pyridine-3-carbonitrile] | greater than 10 fold | 
CN1CCN(c2ncc3c4c(c(-c5ncc(F)c6sc(N)c(C#N)c56)c(F)c3n2)COC4)CC1 [Example 50A, 2-Amino-7-fluoro-4-(5-fluoro-3-(4-methylpiperazin-1-yl)-7,9-dihydrofuro[3,4-f]quinazolin-6-yl)thieno[3,2-c]pyridine-3-carbonitrile] | greater than 10 fold | 
CN(C)[C@H]1CCN(c2ccc3c4c(c(-c5ncc(F)c6sc(N)c(C#N)c56)c(F)c3n2)COC4)C1 [Example 84A, 2-Amino-4-(7-((S)-3-(dimethylamino)pyrrolidin-1-yl)-5-fluoro-1,3-dihydrofuro[3,4-f]quinolin-4-yl)-7-fluorothieno[3,2-c]pyridine-3-carbonitrile] | greater than 10 fold | 
CN1CCOC2CN(c3ncc4c5c(c(-c6ncc(F)c7sc(N)c(C#N)c67)c(F)c4n3)COC5)CC21 (stereo not shown) [Example 91B, 2-Amino-7-fluoro-4-(5-fluoro-3-(4-methylhexahydropyrrolo [3,4-b][1,4]oxazin-6(2H)-yl)-7,9-dihydrofuro[3,4-f]quinazolin-6-yl)thieno[3,2-c]pyridine-3-carbonitrile] | greater than 10 fold | 
CC1C(CN(C)C)CCN1c1ncc2c3c(c(-c4ncc(F)c5sc(N)c(C#N)c45)c(F)c2n1)COC3 (stereo not shown) [Example 99C, 2-Amino-4-(3-(3-((dimethylamino)methyl)-2-methylpyrrolidin-1-yl)-5-fluoro-7,9-dihydrofuro[3,4-f]quinazolin-6-yl)-7-fluorothieno[3,2-c]pyridine-3-carbonitrile] | greater than 10 fold | 
C[C@H]1[C@@H](NC[C@@H](O)C(F)(F)F)CCN1c1ncc2c3c(c(-c4ncc(F)c5sc(N)c(C#N)c45)c(F)c2n1)COC3 [Example 122C, 2-Amino-7-fluoro-4-(5-fluoro-3-((2S,3S)-2-methyl-3-(((R)-3,3,3-trifluoro-2-hydroxypropyl)amino)pyrrolidin-1-yl)-7,9-dihydrofuro[3,4-f]quinazolin-6-yl)thieno[3,2-c]pyridine-3-carbonitrile] | greater than 10 fold | IC50 (KRAS G12V): < 500 nM
[2H]C([2H])([2H])C(N1CCN([C@H]2CCN(c3ncc4c5c(c(-c6ncc(F)c7sc(N)c(C#N)c67)c(F)c4n3)COC5)C2)CC1)C([2H])([2H])[2H] [Example 233D, 2-Amino-7-fluoro-4-(5-fluoro-3-((S)-3-(4-(propan-2-yl-1,1,1,3,3,3-d6)piperazin-1-yl)pyrrolidin-1-yl)-7,9-dihydrofuro[3,4-f]quinazolin-6-yl)thieno[3,2-c]pyridine-3-carbonitrile] |  | IC50 (NRAS): > 2000 nM; IC50 (HRAS): > 2000 nM
CC(C)N[C@@H]1CCN(c2ncc3c4c(c(-c5ncc(F)c6sc(N)c(C#N)c56)c(F)c3n2)COC4)[C@@H]1C [Example 263D, 2-Amino-7-fluoro-4-(5-fluoro-3-((2R,3R)-3-(isopropylamino)-2-methylpyrrolidin-1-yl)-7,9-dihydrofuro[3,4-f]quinazolin-6-yl)thieno[3,2-c]pyridine-3-carbonitrile] |  | IC50 (NRAS): > 2000 nM; IC50 (HRAS): > 2000 nM

Reference: US12723053B2, “KRas inhibitors” (ELI LILLY AND COMPANY, priority 2023, dated 2026)
